PubChem BioAssay AID1224830, NIAID – 2016

Aim: 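Regulators of TLR4 signalling towards TNF-alpha in macrophage-like cells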 (primary screen)
System: human THP-1 monocytic leukaemia cells, TNF dual-luciferase reporter clone, PMA-differentiated to macrophage-like cells
Reagents: siRNA pool against human genes, 50 nM
Time to read-out: LPS for 4 h, given about 3 days after siRNA transfection
Treatment: bacterial LPS (TLR4 ligand), 10 ng/ml
Read-out: 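TNF firefly reporter luminescence divided by renilla, normalised to the plate median, then turned into a robust z-score for each replicate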
Reading the numbers: TNF reporter robust z-score: higher = stronger TNF reporter response to LPS
Active means: 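a well is active when its z-score exceeds 2.8 or falls below -1.5; control wells carry no call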
Shown is one part, drawn at random, of about 18,000 reagents tested. About 2,900 of them (16%) were called active. 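Calls are made per well; low scores hint the gene aids the LPS response, high scores that it dampens it.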 A number with no mark means an inactive call. Repeated entries: four replicate wells of each siRNA pool.

| target | TNF reporter robust z-score |
| --- | --- |
| CD9 | -0.15 |
| CD9 | 0.67 |
| CD9 | -1.06 |
| CD9 | 0.04 |
| INPP5F | -0.3 |
| INPP5F | 0.99 |
| INPP5F | 0.69 |
| INPP5F | 0.93 |
| TAB2 | -1.01 |
| TAB2 | -1.03 |
| TAB2 | -1.17 |
| TAB2 | -0.41 |
| UCP2 | -0.25 |
| UCP2 | -0.27 |
| UCP2 | -0.73 |
| UCP2 | 0.21 |
| TFG | -0.35 |
| TFG | -0.31 |
| TFG | -0.53 |
| TFG | 0.67 |
| BGN | -0.89 |
| BGN | -0.83 |
| BGN | -0.55 |
| BGN | -0.42 |
| ZNF134 | -1.13 |
| ZNF134 | 0.43 |
| ZNF134 | 0.2 |
| ZNF134 | -0.56 |
| GPER1 | -1.22 |
| GPER1 | 0.65 |
| GPER1 | -0.36 |
| GPER1 | -0.52 |
| SPTSSA | 0.63 |
| SPTSSA | -0.44 |
| SPTSSA | -0.52 |
| SPTSSA | 0.12 |
| DPP3 | -0.71 |
| DPP3 | 0.2 |
| DPP3 | 3.4 (active) |
| DPP3 | 0.84 |
| SLC35G2 | -0.59 |
| SLC35G2 | -1.1 |
| SLC35G2 | -1.04 |
| SLC35G2 | 0.49 |
| CD320 | -1.33 |
| CD320 | -0.14 |
| CD320 | -0.65 |
| CD320 | -0.15 |
